Data source: PubChem BioAssay AID1224826 (NIAID, 2016)
Screen: 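Regulators of Tlr4 signalling leading to Tnf-alpha expression in macrophages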 (primary screen). Cells: RAW264.7 G9 macrophages from mouse bearing reporters for p65 (GFP) and the Tnf promoter (mCherry). Reagent: siRNA pool against mouse genes, 100 nM. Time to read-out: 16 h of LPS stimulation, after 2 days of siRNA transfection. Challenge: bacterial lipopolysaccharide (Salmonella minnesota R595), 10 ng/ml. Read-out: 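Imaged Tnf reporter mCherry in nuclei, minus background, normalised per plate to the median and expressed as robust z-scores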. Reading the numbers: Tnf reporter robust z-score: higher = stronger Tnf promoter reporter signal after LPS; Tnf reporter intensity: higher = stronger Tnf promoter reporter signal. Rule for the call: 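a well counts as active at a score of -1.3 or below (Tlr4 knock-down control median) or above 3 (raised signal); controls and wells holding fewer than 50 cells are excluded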. Calls: active = Tnf reporter clearly lowered or raised; inactive = no clear change in Tnf reporter.
The whole screen tested about 17,000 reagents; shown is an unselected part. About 1,110 of them (6.6%) were called active. 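Active means lowered or raised reporter signal; replicate intensities are raw and not normalised per plate.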 The numbers tell different reagents against one gene apart.

gene,reagent,Tnf reporter robust z-score,fewer than 50 cells in well,"Tnf reporter intensity, replicate 1","Tnf reporter intensity, replicate 2",outcome
Dcaf10,1,-1.07,enough cells in well,98.4,110,inactive
Timm21,1,1.1,enough cells in well,202,233,inactive
Calm2,1,,fewer than 50 cells per well; well left out of calls,43.5,98.9,inactive
Igf2bp2,1,-0.1,enough cells in well,129,171,inactive
Pomgnt1,1,-0.75,enough cells in well,203,49,inactive
Rab43,1,,fewer than 50 cells per well; well left out of calls,61,68,inactive
Ahr,1,0.57,enough cells in well,194,210,inactive
Ciao1,1,-1.33,enough cells in well,82.5,85.4,active
Manf,1,-1.25,enough cells in well,92.5,104,inactive
Rap1gds1,1,0.53,enough cells in well,362,244,inactive
Ndrg4,1,-1.12,enough cells in well,176,118,inactive
Grik1,1,-0.7,enough cells in well,179,196,inactive
Asic4,1,-0.59,enough cells in well,190,126,inactive
Pithd1,1,1.29,enough cells in well,467,85.8,inactive
Or9g10,1,1.64,enough cells in well,265,255,inactive
Acad8,1,-0.74,enough cells in well,139,156,inactive
Rbms1,1,0.64,enough cells in well,473,184,inactive
Pgm1,1,-0.49,enough cells in well,117,116,inactive
Cmtr1,1,-0.9,enough cells in well,199,67,inactive
Syap1,1,0.88,enough cells in well,140,132,inactive
Cdkn2aip,1,0.11,enough cells in well,148,83.4,inactive
Dsc2,1,0.98,enough cells in well,256,327,inactive
1700041G16Rik,1,1.92,enough cells in well,347,149,inactive
Rlf,1,2.42,enough cells in well,284,290,inactive
Psmg1,1,1.2,enough cells in well,188,210,inactive
Cyp46a1,1,-0.99,enough cells in well,139,101,inactive
Arhgap33,1,2.37,enough cells in well,175,183,inactive
Rell1,1,0.26,enough cells in well,209,142,inactive
Gpr75,1,-0.37,enough cells in well,150,326,inactive
Rnf146,1,-1.79,enough cells in well,104,16.7,active
Krtap12-1,1,-1.35,enough cells in well,130,54.4,active
Sir2l1,1,-0.19,enough cells in well,120,127,inactive
Prkcz,1,1.28,enough cells in well,318,195,inactive
Jazf1,1,0.18,enough cells in well,232,187,inactive
Firrm,1,0.81,enough cells in well,229,197,inactive
Nabp1,1,-1.1,enough cells in well,142,63.9,inactive
Crybb1,1,1.09,enough cells in well,282,317,inactive
Smr3a,1,,fewer than 50 cells per well; well left out of calls,0,33.2,inactive
Smr3a,2,,fewer than 50 cells per well; well left out of calls,227,142,inactive
Dars2,1,-0.73,enough cells in well,107,135,inactive
